The values below come from PMC5647368.

The target in this experiment is Flag-tagged p65/RelA truncation D2 (TAD domain). Nature of the experiment: co-IP; extracts of HEK293T cells co-transfected with two tagged constructs, harvested 24 h after transfection; immunoprecipitation (anti-Flag in Fig. 5D and 5F) and immunoblot for the other tag; beads washed six times with low-salt lysis buffer (50 mM Hepes pH 7.5, 150 mM NaCl, 1 mM EDTA, 1.5 mM MgCl2, 10% glycerol, 1% Triton X-100). (In general: In western blotting, separated proteins are transferred to a membrane and probed.)

No constants are given. Whether binding was seen depends on the method and setting. In cells and extracts the contact can be indirect. Tags and fused reporters may be left off the sequences shown.

B1: Myc-tagged LRRC25 (protein, UniProt Q8N386 21-305)
chain: LEPSCTVSSADVDWNAEFSATCLNFSGLSLSLPHNQSLRASNVILLDLSGNGLRELPVTFFAHLQKLEVLNVLRNPLSRVDGALAARCDLDLQADCNCALESWHDIRRDNCSGQKPLLCWDTTSSQHNLSAFLEVSCAPGLASATIGAVVVSGCLLLGLAIAGPVLAWRLWRCRVARSRELNKPWAAQDGPKPGLGLQPRYGSRSAPKPQVAVPSCPSTPDYENMFVGQPAAEHQWDEQGAHPSEDNDFYINYKDIDLASQPVYCNLQSLGQAPMDEEEYVIPGH
Turning to B1, the binding entry was “no binding”.
